Data as given in PubChem BioAssay AID493246 (Drosophila RNAi Screening Center, 2011)
The deposit covers about 21,000 reagents; below is a random part of those that have a named target and a result. Of all reagents, 429 (2%) are marked active. 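Values are raw and not normalised between plates; calls rest on per-plate z-scores that were not deposited.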 The record does not give: the amount of reagent, the time to read-out.

- Purpose: 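Genome-wide search for dsRNAs that reduce cell number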 (primary screen)
- Cells: Drosophila Kc and S2R+ cells
- Reagent: long dsRNA against Drosophila genes
- Measurement: 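Raw, unnormalised count of remaining cells in each well; per-plate z-scores of cell number underlie the calls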
- Reading the numbers: Kc cell number and S2R+ cell number: higher = more cells remaining
- Call rule: 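Active when the per-plate z-score of cell number is 3 or more in the direction of fewer cells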

Target gene	DRSC id	Kc cell number, rep 1	Kc cell number, rep 2	S2R+ cell number, rep 1	S2R+ cell number, rep 2	outcome
eIF4E6 (eukaryotic translation initiation factor 4E6)	DRSC14853	1.51e6	1.48e6	1.01e6	1.14e6	inactive
Vps53 (Vacuolar protein sorting 53)	DRSC00595	1.32e6	1.33e6	1.01e6	1.09e6	inactive
CG32625	DRSC18994	1.65e6	1.72e6	1.10e6	1.21e6	inactive
casp (caspar)	DRSC07164	1.38e6	1.40e6	1.13e6	1.20e6	inactive
CG31550	DRSC12197	1.46e6	1.57e6	1.31e6	1.41e6	inactive
CG31550	DRSC12198	1.59e6	1.76e6	1.41e6	1.44e6	inactive
Sms (Spermine synthase)	DRSC10408	1.26e6	1.37e6	1.30e6	1.33e6	inactive
obst-F (obstructor-F)	DRSC10805	1.49e6	1.57e6	1.19e6	1.38e6	inactive
Med (Medea)	DRSC16737	1.38e6	1.50e6	6.18e5	7.39e5	active
CG9922	DRSC16579	1.19e6	1.35e6	1.14e6	1.27e6	inactive
CG42729	DRSC10236	1.69e6	1.60e6	1.20e6	1.35e6	inactive
IFT57 (Intraflagellar transport 57)	DRSC00720	1.49e6	1.37e6	1.12e6	1.30e6	inactive
CG4074	DRSC11752	1.31e6	1.26e6	1.27e6	1.41e6	inactive
CG30034 (retired record)	DRSC05288	1.47e6	1.56e6	1.03e6	1.19e6	inactive
Egfrap (EGFR adaptor protein)	DRSC09963	1.67e6	1.52e6	1.14e6	1.20e6	inactive
Egfrap (EGFR adaptor protein)	DRSC09964	1.71e6	1.63e6	1.13e6	1.25e6	inactive
ver (verrocchio)	DRSC10125	1.35e6	1.49e6	1.21e6	1.43e6	inactive
CG31183	DRSC14403	1.38e6	1.37e6	1.10e6	1.19e6	inactive
CG31183	DRSC15554	1.57e6	1.67e6	1.18e6	1.26e6	inactive
Tes (Testin)	DRSC06996	1.50e6	1.58e6	1.15e6	1.25e6	inactive
Snx21 (Sorting nexin 21)	DRSC00564	1.33e6	1.46e6	1.14e6	1.04e6	inactive
TwdlD (TweedleD)	DRSC14738	1.46e6	1.46e6	9.76e5	1.11e6	inactive
CG18528	DRSC15340	1.60e6	1.73e6	1.03e6	1.11e6	inactive
CG10750	DRSC02105	1.33e6	1.38e6	1.26e6	1.30e6	inactive
NtR	DRSC04628	1.66e6	1.70e6	1.32e6	4.62e5	inactive
ftz (fushi tarazu)	DRSC12626	1.52e6	1.69e6	1.38e6	1.60e6	inactive
Cfp1 (CXXC finger protein 1)	DRSC18128	1.55e6	1.51e6	6.86e5	7.78e5	inactive
CG7685	DRSC16285	1.35e6	1.32e6	8.93e5	1.02e6	inactive
Ptp10D (Protein tyrosine phosphatase 10D)	DRSC20272	1.54e6	1.45e6	1.03e6	1.04e6	inactive
Gpxl (Glutathione peroxidase-like)	DRSC06538	1.44e6	1.47e6	1.11e6	1.24e6	inactive
Nle (Notchless)	DRSC00763	1.56e6	1.66e6	9.36e5	1.06e6	inactive
ADD1 (ADD domain-containing protein 1)	DRSC07135	1.32e6	1.37e6	1.10e6	1.18e6	inactive
SamDC (S-adenosylmethionine decarboxylase)	DRSC03429	1.39e6	1.38e6	1.19e6	1.28e6	inactive
CG32373	DRSC08895	1.49e6	1.48e6	1.20e6	1.37e6	inactive
CG9547	DRSC03260	1.26e6	1.43e6	4.92e5	4.78e5	inactive
CG15035	DRSC17967	1.52e6	1.58e6	1.07e6	1.24e6	inactive
CG3119	DRSC00569	1.67e6	1.58e6	1.02e6	1.21e6	inactive
wrapper	DRSC04723	1.41e6	1.50e6	1.01e6	1.11e6	inactive
CG34278	DRSC13208	1.61e6	1.75e6	1.10e6	1.29e6	inactive

7 of these entries, set out differently:
| Target gene | DRSC id | Kc cell number, rep 1 | Kc cell number, rep 2 | S2R+ cell number, rep 1 | S2R+ cell number, rep 2 | outcome |
| --- | --- | --- | --- | --- | --- | --- |
| ADD1 (ADD domain-containing protein 1) | DRSC07135 | 1.32e6 | 1.37e6 | 1.10e6 | 1.18e6 | inactive |
| SamDC (S-adenosylmethionine decarboxylase) | DRSC03429 | 1.39e6 | 1.38e6 | 1.19e6 | 1.28e6 | inactive |
| CG32373 | DRSC08895 | 1.49e6 | 1.48e6 | 1.20e6 | 1.37e6 | inactive |
| CG9547 | DRSC03260 | 1.26e6 | 1.43e6 | 4.92e5 | 4.78e5 | inactive |
| CG15035 | DRSC17967 | 1.52e6 | 1.58e6 | 1.07e6 | 1.24e6 | inactive |
| CG3119 | DRSC00569 | 1.67e6 | 1.58e6 | 1.02e6 | 1.21e6 | inactive |
| wrapper | DRSC04723 | 1.41e6 | 1.50e6 | 1.01e6 | 1.11e6 | inactive |

Continued:
Target gene	DRSC id	Kc cell number, rep 1	Kc cell number, rep 2	S2R+ cell number, rep 1	S2R+ cell number, rep 2	outcome
rst (roughest)	DRSC17243	1.11e6	1.23e6	1.07e6	1.14e6	inactive
rst (roughest)	DRSC18828	1.44e6	1.42e6	1.06e6	1.15e6	inactive
CG34224	DRSC05269	1.51e6	1.48e6	1.05e6	1.21e6	inactive
Cen (Centrocortin)	DRSC02704	9.05e5	1.08e6	7.99e5	6.57e5	inactive
CG15283	DRSC01980	1.65e6	1.72e6	1.30e6	1.70e6	inactive
Sec61alpha (Sec61 alpha subunit)	DRSC03256	1.30e6	1.60e6	2.82e5	1.23e5	inactive
Argp (Arginine phosphatase)	DRSC16510	1.16e6	1.22e6	1.19e6	1.32e6	inactive
SMC6 (Structural maintenance of chromosomes 6)	DRSC15829	1.43e6	1.47e6	9.55e5	1.05e6	inactive
CG11267	DRSC09833	1.47e6	1.75e6	1.39e6	1.64e6	inactive
CG18631 (retired record)	DRSC06779	1.54e6	1.56e6	1.15e6	1.28e6	inactive
Eig71Ed (Ecdysone-induced gene 71Ed)	DRSC11151	1.46e6	1.62e6	1.33e6	1.48e6	inactive
CG9737	DRSC16550	1.49e6	1.54e6	9.87e5	1.13e6	inactive
Optix	DRSC05078	1.35e6	1.45e6	1.10e6	1.22e6	inactive
Optix	DRSC07484	1.41e6	1.46e6	1.13e6	1.09e6	inactive
CG15344 (retired record)	DRSC18029	1.47e6	1.48e6	1.02e6	1.16e6	inactive
RpL21 (Ribosomal protein L21)	DRSC03704	9.40e5	1.08e6	7.11e5	2.35e5	active
CG13724	DRSC10053	1.76e6	1.86e6	1.35e6	1.42e6	inactive
rols (rolling pebbles)	DRSC09873	1.27e6	1.33e6	1.08e6	1.17e6	inactive
rols (rolling pebbles)	DRSC10254	1.37e6	1.30e6	1.23e6	1.35e6	inactive
rols (rolling pebbles)	DRSC10536	1.29e6	1.37e6	1.24e6	1.30e6	inactive
